From the supplement of paper PMC10849652
The other results are listed elsewhere or left out.

Chains of the proteins cited; added tags and fusions are not shown. Lines headed by an entry give the natural chain unless they say otherwise; changes in a name come on top.
UniProt Q9NXG2: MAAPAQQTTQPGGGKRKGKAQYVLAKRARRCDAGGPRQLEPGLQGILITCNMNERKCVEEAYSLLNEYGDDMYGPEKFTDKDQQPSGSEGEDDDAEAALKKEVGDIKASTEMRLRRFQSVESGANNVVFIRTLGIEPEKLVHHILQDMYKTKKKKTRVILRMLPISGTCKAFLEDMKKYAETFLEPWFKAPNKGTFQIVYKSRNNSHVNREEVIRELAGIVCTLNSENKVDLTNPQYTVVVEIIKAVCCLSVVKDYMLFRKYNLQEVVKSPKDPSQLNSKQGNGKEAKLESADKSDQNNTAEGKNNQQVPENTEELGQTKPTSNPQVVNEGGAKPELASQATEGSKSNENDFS
UniProt Q9Y5J6: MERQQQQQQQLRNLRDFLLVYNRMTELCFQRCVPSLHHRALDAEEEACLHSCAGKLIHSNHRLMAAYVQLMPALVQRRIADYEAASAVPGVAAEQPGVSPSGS
UniProt Q99805: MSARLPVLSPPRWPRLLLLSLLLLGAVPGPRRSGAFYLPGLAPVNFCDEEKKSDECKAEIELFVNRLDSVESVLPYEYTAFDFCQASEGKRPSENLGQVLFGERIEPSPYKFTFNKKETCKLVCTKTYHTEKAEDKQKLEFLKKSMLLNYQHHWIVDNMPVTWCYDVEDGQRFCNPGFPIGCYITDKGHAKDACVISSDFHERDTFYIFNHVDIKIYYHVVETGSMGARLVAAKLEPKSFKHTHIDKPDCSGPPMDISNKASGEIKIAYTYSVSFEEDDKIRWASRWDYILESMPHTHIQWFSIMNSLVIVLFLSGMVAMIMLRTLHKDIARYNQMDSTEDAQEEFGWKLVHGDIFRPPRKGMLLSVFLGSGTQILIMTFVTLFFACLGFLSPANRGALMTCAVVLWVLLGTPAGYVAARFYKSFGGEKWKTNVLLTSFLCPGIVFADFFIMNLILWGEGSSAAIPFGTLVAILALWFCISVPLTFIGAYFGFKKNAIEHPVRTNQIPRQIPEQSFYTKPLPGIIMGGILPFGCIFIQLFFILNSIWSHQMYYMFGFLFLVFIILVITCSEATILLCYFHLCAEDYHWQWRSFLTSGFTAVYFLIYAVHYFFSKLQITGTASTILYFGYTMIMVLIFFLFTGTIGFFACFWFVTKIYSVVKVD
UniProt Q3LXA3: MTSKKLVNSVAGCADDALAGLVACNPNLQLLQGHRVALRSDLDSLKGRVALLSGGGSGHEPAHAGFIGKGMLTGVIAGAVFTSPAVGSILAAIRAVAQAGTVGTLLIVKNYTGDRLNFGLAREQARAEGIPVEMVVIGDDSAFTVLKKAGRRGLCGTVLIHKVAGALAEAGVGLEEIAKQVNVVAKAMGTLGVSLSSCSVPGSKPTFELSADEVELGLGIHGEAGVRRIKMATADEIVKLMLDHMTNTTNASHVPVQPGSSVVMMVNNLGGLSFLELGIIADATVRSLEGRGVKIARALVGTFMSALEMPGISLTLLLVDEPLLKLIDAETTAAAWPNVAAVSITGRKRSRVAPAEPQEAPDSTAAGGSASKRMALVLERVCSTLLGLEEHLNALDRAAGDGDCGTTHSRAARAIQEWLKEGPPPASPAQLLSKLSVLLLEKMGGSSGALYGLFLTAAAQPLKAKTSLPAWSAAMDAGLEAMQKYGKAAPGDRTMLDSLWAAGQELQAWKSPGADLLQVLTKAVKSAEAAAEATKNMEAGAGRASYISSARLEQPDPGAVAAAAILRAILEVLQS
UniProt Q13769: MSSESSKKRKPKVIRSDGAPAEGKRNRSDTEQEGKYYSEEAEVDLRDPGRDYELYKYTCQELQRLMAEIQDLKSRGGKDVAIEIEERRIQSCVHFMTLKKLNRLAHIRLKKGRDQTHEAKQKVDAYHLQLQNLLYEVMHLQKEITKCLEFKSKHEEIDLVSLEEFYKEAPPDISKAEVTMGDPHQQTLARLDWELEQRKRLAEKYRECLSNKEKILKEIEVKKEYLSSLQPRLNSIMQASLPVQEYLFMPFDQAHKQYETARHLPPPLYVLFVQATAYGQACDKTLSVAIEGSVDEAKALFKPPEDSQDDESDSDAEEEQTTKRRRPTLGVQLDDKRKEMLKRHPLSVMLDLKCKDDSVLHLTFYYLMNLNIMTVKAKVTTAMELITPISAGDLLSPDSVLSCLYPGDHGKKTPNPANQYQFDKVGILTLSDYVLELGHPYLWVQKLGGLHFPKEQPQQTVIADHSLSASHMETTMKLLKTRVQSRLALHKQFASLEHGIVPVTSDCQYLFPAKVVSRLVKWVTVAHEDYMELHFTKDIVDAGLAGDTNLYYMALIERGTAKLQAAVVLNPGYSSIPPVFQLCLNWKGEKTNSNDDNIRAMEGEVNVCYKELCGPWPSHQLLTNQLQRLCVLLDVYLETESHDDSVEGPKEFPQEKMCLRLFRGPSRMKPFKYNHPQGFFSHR
UniProt Q9BZW5, whole entry, looked up: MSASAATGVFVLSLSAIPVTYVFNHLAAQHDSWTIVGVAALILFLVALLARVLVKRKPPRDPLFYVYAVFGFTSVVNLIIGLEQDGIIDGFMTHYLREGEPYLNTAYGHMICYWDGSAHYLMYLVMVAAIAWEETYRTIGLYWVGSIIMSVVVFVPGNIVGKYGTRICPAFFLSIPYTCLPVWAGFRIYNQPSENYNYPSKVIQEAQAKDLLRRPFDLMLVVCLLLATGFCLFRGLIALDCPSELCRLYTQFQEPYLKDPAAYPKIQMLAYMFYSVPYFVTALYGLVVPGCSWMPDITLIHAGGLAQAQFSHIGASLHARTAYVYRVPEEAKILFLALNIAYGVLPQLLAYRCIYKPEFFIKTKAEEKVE
UniProt Q8NDZ6: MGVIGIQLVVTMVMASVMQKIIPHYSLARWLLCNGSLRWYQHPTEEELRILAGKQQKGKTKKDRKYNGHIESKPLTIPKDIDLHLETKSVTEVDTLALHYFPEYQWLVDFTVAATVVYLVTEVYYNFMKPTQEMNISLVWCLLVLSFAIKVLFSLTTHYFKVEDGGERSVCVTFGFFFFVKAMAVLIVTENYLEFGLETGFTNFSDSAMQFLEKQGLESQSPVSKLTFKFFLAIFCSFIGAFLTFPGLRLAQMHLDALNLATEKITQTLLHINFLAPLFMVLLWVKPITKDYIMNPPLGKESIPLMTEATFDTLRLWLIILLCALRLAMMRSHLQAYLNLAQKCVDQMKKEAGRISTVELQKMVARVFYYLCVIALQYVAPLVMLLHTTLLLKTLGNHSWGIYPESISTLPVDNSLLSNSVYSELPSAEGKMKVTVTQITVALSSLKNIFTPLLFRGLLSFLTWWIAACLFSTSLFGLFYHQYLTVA
UniProt Q96EK4, whole entry, looked up: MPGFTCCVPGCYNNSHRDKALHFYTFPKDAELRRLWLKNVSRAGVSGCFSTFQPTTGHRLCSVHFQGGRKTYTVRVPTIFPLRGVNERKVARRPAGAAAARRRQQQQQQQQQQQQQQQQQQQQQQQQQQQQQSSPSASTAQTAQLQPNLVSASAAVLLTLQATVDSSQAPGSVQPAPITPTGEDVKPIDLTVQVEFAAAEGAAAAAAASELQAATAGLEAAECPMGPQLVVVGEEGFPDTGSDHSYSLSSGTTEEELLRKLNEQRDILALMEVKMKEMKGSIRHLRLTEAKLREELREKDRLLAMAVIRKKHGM
UniProt O75204: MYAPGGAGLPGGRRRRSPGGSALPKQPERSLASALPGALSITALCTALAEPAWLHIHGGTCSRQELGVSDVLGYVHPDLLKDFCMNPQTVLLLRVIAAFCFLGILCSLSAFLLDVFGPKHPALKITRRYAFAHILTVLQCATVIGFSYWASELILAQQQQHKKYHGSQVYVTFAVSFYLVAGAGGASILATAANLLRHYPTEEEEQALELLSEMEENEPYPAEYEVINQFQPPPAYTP
UniProt Q9NX00: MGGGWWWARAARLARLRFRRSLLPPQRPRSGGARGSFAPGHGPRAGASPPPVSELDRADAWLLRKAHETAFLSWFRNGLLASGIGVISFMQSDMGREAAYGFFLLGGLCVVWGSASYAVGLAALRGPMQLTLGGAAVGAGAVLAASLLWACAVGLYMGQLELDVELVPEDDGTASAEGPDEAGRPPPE
UniProt O14925: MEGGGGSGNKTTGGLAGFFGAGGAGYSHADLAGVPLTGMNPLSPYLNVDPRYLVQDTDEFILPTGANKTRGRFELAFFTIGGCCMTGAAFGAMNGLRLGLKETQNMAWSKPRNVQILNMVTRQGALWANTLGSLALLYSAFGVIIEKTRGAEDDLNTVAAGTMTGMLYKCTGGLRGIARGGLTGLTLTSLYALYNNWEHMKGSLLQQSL
UniProt Q9NQ88: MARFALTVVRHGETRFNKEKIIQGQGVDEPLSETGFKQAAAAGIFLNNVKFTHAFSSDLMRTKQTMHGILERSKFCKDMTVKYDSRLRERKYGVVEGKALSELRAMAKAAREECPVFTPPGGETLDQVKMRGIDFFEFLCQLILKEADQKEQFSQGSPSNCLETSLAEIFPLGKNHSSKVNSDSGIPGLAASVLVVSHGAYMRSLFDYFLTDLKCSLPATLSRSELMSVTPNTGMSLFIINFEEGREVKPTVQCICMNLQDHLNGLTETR
UniProt Q07157: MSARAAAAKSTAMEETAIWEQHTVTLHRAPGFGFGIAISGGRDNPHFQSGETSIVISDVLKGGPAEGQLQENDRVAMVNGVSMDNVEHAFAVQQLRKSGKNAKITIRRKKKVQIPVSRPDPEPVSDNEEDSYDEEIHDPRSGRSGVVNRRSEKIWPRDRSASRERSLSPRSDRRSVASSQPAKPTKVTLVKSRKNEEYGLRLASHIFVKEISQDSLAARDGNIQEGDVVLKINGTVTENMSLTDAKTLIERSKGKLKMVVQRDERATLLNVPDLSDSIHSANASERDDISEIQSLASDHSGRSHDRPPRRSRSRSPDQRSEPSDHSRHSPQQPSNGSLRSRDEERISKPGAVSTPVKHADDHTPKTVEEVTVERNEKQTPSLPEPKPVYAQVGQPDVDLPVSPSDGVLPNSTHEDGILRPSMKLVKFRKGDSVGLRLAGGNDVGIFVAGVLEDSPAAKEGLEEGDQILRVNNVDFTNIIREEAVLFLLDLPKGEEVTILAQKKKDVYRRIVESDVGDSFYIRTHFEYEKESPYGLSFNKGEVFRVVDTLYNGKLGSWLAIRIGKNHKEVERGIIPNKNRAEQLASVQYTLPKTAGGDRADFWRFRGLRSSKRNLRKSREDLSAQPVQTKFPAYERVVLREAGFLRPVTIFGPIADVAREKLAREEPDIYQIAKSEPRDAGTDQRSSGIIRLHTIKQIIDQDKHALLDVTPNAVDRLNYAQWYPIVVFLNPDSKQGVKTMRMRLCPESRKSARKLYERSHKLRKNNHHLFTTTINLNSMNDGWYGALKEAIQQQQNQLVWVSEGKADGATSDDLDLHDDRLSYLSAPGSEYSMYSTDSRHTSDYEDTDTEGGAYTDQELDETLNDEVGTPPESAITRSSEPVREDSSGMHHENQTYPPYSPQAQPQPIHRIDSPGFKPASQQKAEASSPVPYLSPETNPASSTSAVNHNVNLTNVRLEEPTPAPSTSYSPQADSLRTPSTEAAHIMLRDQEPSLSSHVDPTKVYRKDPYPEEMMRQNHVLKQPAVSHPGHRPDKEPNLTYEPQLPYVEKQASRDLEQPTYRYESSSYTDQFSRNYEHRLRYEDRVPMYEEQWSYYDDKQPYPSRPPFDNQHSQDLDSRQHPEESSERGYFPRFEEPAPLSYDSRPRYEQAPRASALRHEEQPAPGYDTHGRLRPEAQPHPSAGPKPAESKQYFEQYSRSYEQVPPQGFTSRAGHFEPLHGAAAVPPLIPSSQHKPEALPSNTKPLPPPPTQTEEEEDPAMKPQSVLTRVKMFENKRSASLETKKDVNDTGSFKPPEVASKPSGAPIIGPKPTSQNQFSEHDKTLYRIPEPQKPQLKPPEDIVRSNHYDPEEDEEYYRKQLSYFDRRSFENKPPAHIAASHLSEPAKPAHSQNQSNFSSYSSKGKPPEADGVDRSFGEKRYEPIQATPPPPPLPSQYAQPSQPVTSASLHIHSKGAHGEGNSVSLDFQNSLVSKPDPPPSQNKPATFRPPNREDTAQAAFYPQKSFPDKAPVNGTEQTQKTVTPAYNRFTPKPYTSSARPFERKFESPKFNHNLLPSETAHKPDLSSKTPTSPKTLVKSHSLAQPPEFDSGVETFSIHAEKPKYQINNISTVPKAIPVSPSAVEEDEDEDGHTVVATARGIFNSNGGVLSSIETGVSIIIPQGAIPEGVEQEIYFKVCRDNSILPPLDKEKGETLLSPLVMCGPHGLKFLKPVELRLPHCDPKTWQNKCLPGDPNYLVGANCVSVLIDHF
UniProt A0PK00: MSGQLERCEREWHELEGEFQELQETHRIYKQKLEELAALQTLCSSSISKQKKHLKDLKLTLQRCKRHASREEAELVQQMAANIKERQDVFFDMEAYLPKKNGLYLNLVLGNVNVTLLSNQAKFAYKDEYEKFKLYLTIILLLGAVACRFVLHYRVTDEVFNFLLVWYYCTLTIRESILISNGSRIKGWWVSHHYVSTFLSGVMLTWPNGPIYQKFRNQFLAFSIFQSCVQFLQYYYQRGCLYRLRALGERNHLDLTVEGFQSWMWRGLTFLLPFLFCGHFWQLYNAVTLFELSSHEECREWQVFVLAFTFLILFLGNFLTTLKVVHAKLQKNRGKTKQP

Assays:
Experiment in all cases: log2 fold change, soluble protein after heating vs DMSO (PISA); higher = thermal stabilisation; K562 lysate, 10 uM; active = over 0.2 and 3.5 SD of the protein, either way, in both replicates (recomputed)
erlotinib = compound: C#Cc1cccc(Nc2ncnc3cc(OCCOC)c(OCCOC)cc23)c1 [erlotinib]
Procedure, shortened: (§1)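 To prepare the extract, K562 pellets were dounce-homogenised in PBS pH 7.4 with 1 mM MgCl2, giving crude material at 1 mg/mL protein. This was treated with 10 μM compound for 30 min, then heated in aliquots for 3 min over 48°C-58°C before pooling and addition of NP-40 to 0.5% at 4°C. Centrifugation at 21,000xg for 90 min left soluble protein in the supernatant, which TMTpro 16plex LC-MS/MS quantified with equalised channel sums. Results are log-two fold changes in thermal stability compared with solvent controls, from duplicates.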

[1] = compound: C/C(=N\NC(=O)C1=CC(=CC=C1)S(=O)(=O)N2CCOCC2)/C3=C(C=CC(=C3)Cl)O
Procedure, shortened: as §1

[2] = compound: C1=CC(=CC=C1C2=NC3=C(N2)C=C(C=C3)C(=O)N)OC4=CC=C(C=C4)Cl
Procedure, shortened: as §1

[3] = compound: C1=CC2=C(C=CC(=C2)/C=C\3/C(=O)NC(=NCC4=CC=CS4)S3)N=C1
Procedure, shortened: as §1

[4] = compound: C1=CC2=NC=CN=C2C=C1/C=C/3\C(=O)NC(=O)S3
Procedure, shortened: as §1

[5] = compound: C1=CC=C(C=C1)C2=NC(=C(N2)C3=CC=NC=C3)C4=CC(=C(C=C4)Cl)O
Procedure, shortened: as §1

[6] = compound: C1=CC=C2C(=C1)C3=NNC4=CC=CC(=C43)C2=O
Procedure, shortened: as §1

[7] = compound: C1CCN(C1)C(=O)NC2=CC=CC(=C2)NC3=NC=C(C(=N3)NCCC4=CN=CN4)Br
Procedure, shortened: as §1

[8] = compound: C1CN(CCC1(CC2=CC=C(C=C2)Cl)N)C3=NC=NC4=C3C=CN4
Procedure, shortened: as §1

IRAK-1-4 Inhibitor I = compound: C1COCCN1CCN2C3=CC=CC=C3N=C2NC(=O)C4=CC(=CC=C4)[N+](=O)[O-] [IRAK-1-4 Inhibitor I]
Procedure, shortened: as §1

ibrutinib = compound: C=CC(=O)N1CCC[C@@H](n2nc(-c3ccc(Oc4ccccc4)cc3)c3c(N)ncnc32)C1 [ibrutinib]
Procedure, shortened: as §1

[9] = compound: CC(=O)c1cnc2ccc(-c3cc(Cl)c(O)c(Cl)c3)nc2c1N[C@H]1CC[C@H](CN(C)C)CC1
Procedure, shortened: as §1

ralimetinib = compound: CC(C)(C)Cn1c(N)nc2ccc(-c3[nH]c(C(C)(C)C)nc3-c3ccc(F)cc3)nc21 [ralimetinib]
Procedure, shortened: as §1

[10] = compound: CC(C)(O)CC(=O)NCCn1ccc2ncnc(Nc3ccc(Oc4cccc(C(F)(F)F)c4)c(Cl)c3)c21
Procedure, shortened: as §1

[11] = compound: CC(C)C1=C2N=C(C=C(N2N=C1)NCC3=CC=CC=C3)NCCCCCCN
Procedure, shortened: as §1

[12] = compound: CC1=C(C(CC(=O)N1)C2=CC=C(C=C2)C(F)(F)F)C(=O)NC3=C(C=C4C(=C3)C=NN4)F
Procedure, shortened: as §1

[13] = compound: CC1=C(C2=C(C=C1)C(=O)C3=CC=CC=C3N2CCCN)C
Procedure, shortened: as §1

[14] = compound: CC1=C(C=C(C=C1)NC(=O)C2=CC(=CC=C2)C(C)(C)C#N)NC3=CC4=C(C=C3)N=CN(C4=O)C
Procedure, shortened: as §1

[15] = compound: CC1=C(C=C(C=C1)NC(=O)C2=CC(=CC=C2)N(C)C)NC(=O)C3=CC=C(C=C3)O
Procedure, shortened: as §1

[16] = compound: CC1=CC=C(C=C1)SC2=C3C=C(SC3=CN=C2)C(=O)N
Procedure, shortened: as §1

Measured: log2 fold change

THUMPD1 (UniProt Q9NXG2)
inactive: erlotinib 0.008 | [1] -0.006 | [2] 0.007 | [3] -0.002 | [4] 0.001 | [5] -0.006 | [6] 0.016 | [7] 0.011 | [8] -0.014 | IRAK-1-4 Inhibitor I 0.007 | ibrutinib 0 | [9] 0.015 | ralimetinib -0.016 | [10] -0.002 | [11] 0.005 | [12] -0.032 | [13] 0.029 | [14] 0.001 | [15] -0.023 | [16] 0.002

TIMM10B (UniProt Q9Y5J6)
inactive: erlotinib 0.116 | [1] 0.07 | [2] -0.083 | [3] 0.033 | [4] 0.078 | [5] -0.006 | [6] 0.103 | IRAK-1-4 Inhibitor I -0.049 | ibrutinib -0.027 | ralimetinib 0.065 | [10] -0.077 | [11] -0.048 | [13] -0.02 | [14] 0.104 | [15] -0.045

TMC1 (UniProt Q8TDI8)
inactive: erlotinib -0.028 | [1] -0.001 | [2] -0.007 | [3] 0.013 | [5] -0.072 | [6] -0.071 | [7] -0.148 | [8] -0.081 | IRAK-1-4 Inhibitor I 0.099 | [9] -0.016 | ralimetinib 0.156 | [10] -0.185 | [11] 0.204 | [12] -0.034 | [14] -0.104 | [15] 0.017 | [16] -0.045

TM9SF2 (UniProt Q99805)
inactive: erlotinib 0.051 | [1] 0.03 | [2] -0.041 | [3] -0.014 | [4] 0.02 | [5] -0.005 | [6] -0.013 | [7] 0 | [8] 0.028 | IRAK-1-4 Inhibitor I 0.011 | ibrutinib -0.015 | [9] 0.014 | ralimetinib 0.009 | [10] -0.026 | [11] -0.011 | [12] 0.026 | [13] 0.038 | [14] 0.054 | [15] -0.015 | [16] -0.012

2 successive records out of the list so far, for reference:
TMC1 (UniProt Q8TDI8)
inactive: erlotinib -0.028 | [1] -0.001 | [2] -0.007 | [3] 0.013 | [5] -0.072 | [6] -0.071 | [7] -0.148 | [8] -0.081 | IRAK-1-4 Inhibitor I 0.099 | [9] -0.016 | ralimetinib 0.156 | [10] -0.185 | [11] 0.204 | [12] -0.034 | [14] -0.104 | [15] 0.017 | [16] -0.045

TM9SF2 (UniProt Q99805)
inactive: erlotinib 0.051 | [1] 0.03 | [2] -0.041 | [3] -0.014 | [4] 0.02 | [5] -0.005 | [6] -0.013 | [7] 0 | [8] 0.028 | IRAK-1-4 Inhibitor I 0.011 | ibrutinib -0.015 | [9] 0.014 | ralimetinib 0.009 | [10] -0.026 | [11] -0.011 | [12] 0.026 | [13] 0.038 | [14] 0.054 | [15] -0.015 | [16] -0.012

(continued)

TKFC (UniProt Q3LXA3)
inactive: erlotinib 0 | [1] -0.005 | [2] 0.002 | [3] 0.005 | [4] 0.008 | [5] -0.022 | [6] -0.009 | [7] -0.014 | [8] 0 | IRAK-1-4 Inhibitor I -0.016 | ibrutinib -0.002 | [9] 0.006 | ralimetinib -0.007 | [10] -0.009 | [11] -0.016 | [12] -0.035 | [13] -0.026 | [14] 0.051 | [15] -0.01 | [16] 0.011

THOC5 (UniProt Q13769)
inactive: erlotinib 0.013 | [1] -0.105 | [2] 0.036 | [3] -0.035 | [4] 0.008 | [5] -0.001 | [6] -0.016 | [7] 0.005 | [8] 0.001 | IRAK-1-4 Inhibitor I -0.012 | ibrutinib 0.023 | [9] 0.004 | ralimetinib 0.015 | [10] -0.011 | [11] 0.008 | [12] -0.011 | [13] -0.002 | [14] 0.004 | [15] 0.018 | [16] -0.001

TM6SF1 (UniProt Q9BZW5)
inactive: erlotinib -0.083 | [1] -0.004 | [2] 0.074 | [3] -0.088 | [4] -0.045 | [6] 0.109 | [7] -0.01 | [8] 0.084 | ibrutinib -0.032 | [9] -0.012 | [11] 0.079 | [13] -0.102 | [14] -0.083 | [16] -0.042

THUMPD3 (UniProt Q9BV44)
inactive: erlotinib 0.007 | [1] 0.031 | [2] 0.067 | [3] 0.009 | [4] -0.009 | [5] 0.024 | [6] 0.015 | [7] 0 | [8] 0.034 | IRAK-1-4 Inhibitor I 0.042 | ibrutinib -0.022 | [9] -0.014 | ralimetinib -0.012 | [10] -0.021 | [11] 0.007 | [12] -0.015 | [13] -0.015 | [14] 0.028 | [15] -0.01 | [16] -0.009

TMEM161B (UniProt Q8NDZ6)
inactive: erlotinib 0.051 | [1] -0.08 | [2] -0.017 | [3] 0.174 | [4] 0.007 | [5] -0.068 | [6] -0.133 | [7] 0.052 | [8] -0.01 | IRAK-1-4 Inhibitor I 0.09 | ibrutinib -0.026 | [9] 0.197 | ralimetinib 0 | [10] -0.224 | [11] -0.113 | [12] -0.005 | [14] 0.027 | [15] 0.108 | [16] -0.012

THAP11 (UniProt Q96EK4)
inactive: erlotinib 0.072 | [1] 0.174 | [2] 0.08 | [3] 0.008 | [4] 0.044 | [5] -0.04 | [6] -0.045 | [7] -0.027 | [8] 0.004 | IRAK-1-4 Inhibitor I -0.016 | ibrutinib -0.034 | [9] -0.107 | ralimetinib 0.096 | [10] -0.028 | [11] -0.09 | [12] 0.017 | [13] -0.201 | [15] 0.05 | [16] 0.028

TMEM120A (UniProt Q9BXJ8)
inactive: erlotinib -0.022 | [1] -0.169 | [2] -0.095 | [3] 0.101 | [4] 0.046 | [5] -0.015 | [6] -0.147 | [7] -0.143 | [8] 0.009 | IRAK-1-4 Inhibitor I -0.006 | ibrutinib -0.088 | [9] 0.036 | ralimetinib 0.025 | [10] -0.354 | [11] -0.057 | [12] 0.037 | [13] -0.052 | [14] 0.044 | [15] 0.045 | [16] -0.055

TMEM127 (UniProt O75204)
inactive: erlotinib -0.017 | [1] 0.029 | [2] 0.066 | [3] -0.15 | [4] -0.209 | [6] -0.106 | [7] 0 | [8] 0.103 | ibrutinib -0.106 | [11] -0.047 | [13] 0.054

TK1 (UniProt K7ERV3)
inactive: erlotinib 0.01 | [1] -0.061 | [2] 0.078 | [3] -0.047 | [4] -0.114 | [5] 0.048 | [6] 0.036 | [7] 0.017 | [8] 0.222 | IRAK-1-4 Inhibitor I 0.04 | ibrutinib 0.175 | ralimetinib -0.018 | [10] -0.061 | [11] -0.114 | [12] -0.013 | [13] -0.023 | [14] 0.032 | [15] -0.028

TMEM160 (UniProt Q9NX00)
inactive: erlotinib -0.02 | [1] -0.126 | [2] -0.026 | [3] -0.216 | [4] 0.059 | [5] 0.009 | [6] 0.005 | [7] 0.078 | [8] 0.104 | IRAK-1-4 Inhibitor I 0.086 | ibrutinib -0.086 | [9] 0.049 | ralimetinib -0.013 | [10] -0.034 | [11] 0.039 | [12] -0.001 | [13] 0.013 | [14] -0.075 | [15] -0.008 | [16] -0.036

TIMM23 (UniProt O14925)
inactive: erlotinib -0.092 | [1] 0.065 | [2] -0.008 | [3] 0.001 | [4] -0.035 | [5] -0.011 | [6] 0.001 | [7] -0.099 | [8] 0.031 | IRAK-1-4 Inhibitor I 0.003 | ibrutinib -0.053 | [9] -0.029 | ralimetinib 0.008 | [10] -0.067 | [11] 0.026 | [12] -0.054 | [13] -0.008 | [14] 0.002 | [15] 0.012 | [16] -0.02

TIGAR (UniProt Q9NQ88)
inactive: erlotinib -0.008 | [1] 0.219 | [2] -0.023 | [3] -0.143 | [5] -0.146 | [6] 0.145 | [7] 0.052 | [8] 0.059 | IRAK-1-4 Inhibitor I 0.257 | ralimetinib 0.28 | [10] 0.068 | [11] 0.041 | [13] -0.018 | [14] 0.169 | [15] -0.207

TJP1 isoform 2 (UniProt Q07157)
inactive: erlotinib -0.002 | [1] 0 | [2] 0.037 | [3] -0.007 | [4] -0.082 | [5] -0.018 | [6] -0.041 | [7] -0.075 | [8] 0.039 | IRAK-1-4 Inhibitor I 0.015 | ibrutinib 0.019 | [9] -0.001 | ralimetinib -0.007 | [10] -0.041 | [11] 0.036 | [12] 0.002 | [13] -0.025 | [14] 0.015 | [15] 0.016 | [16] -0.014

TMEM120B (UniProt A0PK00)
inactive: erlotinib 0.095 | [1] 0.068 | [2] -0.139 | [3] 0.136 | [6] -0.02 | [7] -0.07 | [8] -0.005 | [9] 0.039 | [11] -0.108 | [13] 0.047 | [14] 0.137 | [16] -0.106
